# Primary screen of a compound library

By UniProt entry, the sequences of proteins in these tests, tags left out.
UniProt E9BF75, entry or part of it: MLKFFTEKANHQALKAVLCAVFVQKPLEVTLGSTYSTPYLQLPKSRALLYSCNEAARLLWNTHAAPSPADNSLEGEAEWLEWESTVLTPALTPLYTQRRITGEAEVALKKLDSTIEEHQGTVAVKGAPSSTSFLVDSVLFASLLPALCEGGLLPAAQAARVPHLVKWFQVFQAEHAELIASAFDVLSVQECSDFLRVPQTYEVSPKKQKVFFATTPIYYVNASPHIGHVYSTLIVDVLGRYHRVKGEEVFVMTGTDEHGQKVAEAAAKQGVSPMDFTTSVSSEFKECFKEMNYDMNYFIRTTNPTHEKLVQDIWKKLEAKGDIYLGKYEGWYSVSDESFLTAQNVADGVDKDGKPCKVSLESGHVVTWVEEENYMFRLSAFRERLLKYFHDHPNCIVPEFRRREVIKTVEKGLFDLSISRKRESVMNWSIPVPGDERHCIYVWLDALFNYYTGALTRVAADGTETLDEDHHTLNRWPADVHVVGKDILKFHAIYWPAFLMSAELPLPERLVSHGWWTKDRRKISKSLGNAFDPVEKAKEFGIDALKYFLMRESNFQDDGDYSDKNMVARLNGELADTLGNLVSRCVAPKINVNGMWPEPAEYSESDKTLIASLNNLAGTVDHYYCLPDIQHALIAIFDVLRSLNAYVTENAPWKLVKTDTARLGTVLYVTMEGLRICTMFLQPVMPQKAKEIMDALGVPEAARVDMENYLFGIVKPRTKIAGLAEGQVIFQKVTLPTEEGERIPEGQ

Source: ChEMBL document CHEMBL3988442, “University of Dundee, Small-Polar-MMV Screening Library” (2021).

LdMetRS: 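Primary screen of methionyl-tRNA synthetase; the read-out is not stated. Target: Methionyl-tRNA synthetase (putative), Leishmania donovani (UniProt E9BF75). The test concentration is not given. Values are per cent inhibition. About 68,000 compounds were tested under these conditions; 0.035% (about 24) showed 50% or more at least once.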
Mtb heat-shock: 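Assay on Mycobacterium tuberculosis, filed only as a heat shock assay from Cornell; the read-out is not stated. The concentration is filed as 10 mM, unlikely as a test dose, so the dose is not known. Direction is inferred from retests: higher values go with stronger inhibition. Of about 69,000 compounds tested this way, about 930 (1.4%) reached 50% or more in at least one test.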

Results are percentages, as filed. The controls that fix the scale are not given in the record; negative values are as filed. Compounds were drawn at random from those tested, without regard to their results. A dash means the value is not listed here; it may have been measured.

Compound,LdMetRS,Mtb heat-shock
NC(=O)CN(Cc1ccc(Br)cc1)C(=O)c1cnccn1,12.66%,-10.14%
CN1CCO[C@@H]2CN(C(=O)NCc3cccc(F)c3)CC[C@@H]2C1,10.85%,-
Cc1cccc(CN2CCC(c3nnc(-c4scnc4C)o3)CC2)c1,3.529%,-4.714%
O=C(O)C(F)(F)F.[H][C@@]12CCN(C(=O)NC)CC[C@]1(C(=O)N1CCOCC1)CCN2C,-,-6.874%
CCC(OC)C(=O)NCc1cc2n(n1)CCCN(C1CCCCC1)C2 (stereo not given),11.83%,21.17%
CCN1CCN(S(=O)(=O)c2cc(Cl)c(Cl)cc2C)CC1,7.874%,-6.375%
CN(C)C(=O)COCc1cncc2c1CCN(Cc1cnn(C)c1)C2,15.75%,-
CCC(C)c1ccc(NC(=O)C2CCN(C(=O)COC)CC2)cc1 (stereo not given),-3.922%,12.09%
COCCC(=O)N1Cc2nc3c(C)c(-c4cccs4)nn3c(O)c2C1,8.491%,-0.9743%
O=C(O)C(F)(F)F.O=C(O)C(F)(F)F.[H][C@@]12CCC(=O)N(CCN(C)C)[C@]1([H])CCN2Cc1cccc(C#N)c1,-,-16.4%
O=C1NCC(c2ccc(F)cc2)Cc2[nH]c(CCN3CCCC3)nc21 (stereo not given),39.95%,17.3%
O=C(NC1CC1)[C@H]1C[C@H]2OCC[C@H]2N(CC2CCOCC2)C1,7.95%,-
CC(C)CN(Cc1ccc(-n2cncn2)cc1)Cc1ccccn1,19.06%,13.43%
CC(Cn1cccn1)NC(=O)NCCc1cccs1 (stereo not given),24.57%,-14.48%
c1cc(CN2CCN3C[C@H](Oc4cncnc4)C[C@H]3C2)ccn1,17.66%,-
CC(CCN1CCOCC1)NC(=O)c1cccc(C(F)(F)F)c1F (stereo not given),11.54%,12.66%
CCN1CC(C(=O)NCCc2csc(-c3ccncc3)n2)CCC1=O (stereo not given),16.08%,-12.92%
COCCN1CCOCC2(CCN(c3cnccn3)CC2)C1,2.241%,-
CSCCc1c(-c2ccccc2)ncn1[C@H]1C[C@@H](C(=O)O)N(C)C1,7.397%,-28.67%
Cc1cncc(C2CCCN(C(=O)c3cccn3C)C2)n1 (stereo not given),15.03%,-1.689%
CCc1nc(N2CCCC(O)(CO)CC2)ncc1C (stereo not given),5.415%,-26.48%
Cc1n[nH]c(C)c1C1CCCN1C(=O)NCCSC(C)(C)C (stereo not given),6.404%,-13.72%
CC(C)(C)n1ncc2c1NC(=O)CSC2c1ccc2c(c1)OCCO2 (stereo not given),9.14%,-18.33%
Cc1cnn(C2CCCN(C(=O)c3cc[nH]n3)C2)c1 (stereo not given),18.12%,1.868%
CSCCCN1CCN(c2ccc(Cl)cn2)CC1,18.61%,-21.77%
Cc1nc(C)n(CC2CCCCN2Cc2ncc(C(C)(C)C)o2)n1 (stereo not given),7.692%,-15.1%
Cc1nccn1CCC1CCCCN1Cc1ccc(N(C)C)nc1 (stereo not given),11.71%,0.3615%
O=C(CN1CCCC(Cn2cncn2)C1)NCCCc1ccccc1 (stereo not given),19.94%,-1.778%
CCOCCn1nc(C)cc1C(=O)N1CCOCC(CO)C1 (stereo not given),8.333%,-6.622%
COc1c(C2CCCN2C(=O)c2ccc3cc[nH]c3c2)c(C)nn1C (stereo not given),19.44%,-22.96%
CCNC(=O)NC(=O)CNC1(c2noc(C)n2)CCCCC1,8.451%,-20.29%
Nc1nc2c(c(NCc3nc(-c4ccncc4)n[nH]3)n1)CCCC2,16.94%,24.67%
[H][C@@]12CC[C@H](Oc3ccccc3Cl)[C@]1([H])CN(C(=O)Cn1ccnc1)C2,-,1.32%
CCCc1n[nH]c(C2CN(C(=O)CCn3cc(C)cn3)CCO2)n1 (stereo not given),-21.59%,-3.854%
Cc1ccc(CN2CCC3(CC2)CC(N2CCN(C)CC2)CO3)s1 (stereo not given),15.42%,-
CN(CC(=O)N1CCCC1Cn1cccn1)c1cnccn1 (stereo not given),5.164%,10.69%
O=C(O)C(F)(F)F.[H][C@@]12CCN(c3ccncn3)C[C@@]1([H])O[C@@H](C(=O)NCCOC)C2,-,-29.7%
Cc1csc(C2(NC(=O)CCNC(=O)C(C)(C)C)CCCC2)n1,3.495%,-2.094%
COc1ccccc1-c1ccccc1CC1(C(=O)O)CCNCC1,8.861%,-15.73%
CN(c1ccccc1)c1ccc(CC2CCCN(CCO)C2)nn1 (stereo not given),2.625%,11.32%
O=C(O)C(F)(F)F.[H][C@@]12C[C@@H](c3nnc(C)[nH]3)O[C@]1([H])CN(C1CCC1)C2,-,-45.83%
O=C(O)C1(n2ccc(-c3ccco3)n2)CCN(Cc2ccccn2)CC1,9.816%,-5.956%
CC(C#N)(NC(=O)c1ccc(C#N)cc1)C1CC1 (stereo not given),5.222%,10.11%
CCc1cccc(OCCCN(C)C(=O)CN2CCNC2=O)c1,12.04%,-6.169%
CCC(C)(NCC(=O)OC)c1nc(C)cs1 (stereo not given),9.964%,6.267%
Cc1c(C(=O)NS(=O)(=O)c2ccc(F)cc2)cnn1CC(C)C,3.727%,-7.657%
COc1cccc(CN(C)Cc2nc3c(cnn3C)c(=O)[nH]2)c1OC,8.355%,22.88%
CCN1C(=O)[C@]2(CC[C@@H]3CN(C(=O)Nc4ccc(F)cc4)C[C@@H]32)N=C1C,10.18%,-
COC(=O)N1CCCCC1C(=O)N1CCN(c2ncccc2C)CC1 (stereo not given),17.33%,-0.5709%
Cn1nc(C(=O)N2CCOCC2)c2c1CN(CC1CC1)C2.O=C(O)C(F)(F)F.O=C(O)C(F)(F)F,-,21.53%
Cc1ccc(CN2CCOC3(CCCN(C(=O)c4ccco4)C3)C2)s1 (stereo not given),7.874%,-
O=C1OCCN1CCc1nc(-c2cc3c4c(c2)CC(=O)N4CCC3)cs1,4.453%,-9.235%
CCC(=O)NCc1ccc(N2CCCCC2)cc1,11.88%,-5.916%
CN(Cc1ccco1)C(=O)CN1C(=O)c2ccccc2C1=O,14.92%,-5.908%
CC(C)=CCN1CCOC(Cn2nc(C)cc2C)C1 (stereo not given),6.122%,-12.33%
COCCn1cc(NC(=O)NC(C)c2ccc(Cl)s2)cn1 (stereo not given),-0.2597%,5.3%
Cc1ccc(CN2CCOC3(COCCN(CCN(C)C)C3)C2)o1 (stereo not given),17.77%,-
COc1ccc(-c2nc(CN3CC(n4cc(C)cn4)C3)no2)cc1,9.449%,21.84%
O=C(NCCSC1CCCC1)c1cc(Cl)ccn1,1.361%,-3.747%
O=C1CCCN1CC1CN(C(=O)CC2CCCC2)Cc2nccn2C1 (stereo not given),15.69%,28.27%
CCN(CC)S(=O)(=O)N1CCCC1c1nnc2n1CCN(C)CC2 (stereo not given),16.04%,-6.328%
O=C(O)C(F)(F)F.[H][C@@]12CCN(c3cccnc3)C[C@]1([H])CN(C(=O)c1ccc(F)cc1)C2,-,-7.242%
Cc1cc2c(cc1C)OC1(C=C2)CCN(CC(=O)N2CCOCC2)CC1,15.41%,-7.891%
Cc1nn(C)c(C)c1C1CCCN1C(=O)c1ccc(N(C)C)nc1 (stereo not given),16.83%,4.566%
COc1ccc(CNC(C)c2ccccc2Cl)c(OC)c1OC.Cl (stereo not given),-,-26.61%